Test results taken from publication PMC11651612.
No constants are given. Whether binding was seen depends on the method and setting. In cells and extracts the contact can be indirect. A yes stands for co-enrichment or nearness to the bait. Other partners may have been found.

T1: Cdc10-mCherry (C. neoformans) (UniProt J9VMT9)
T1 sequence: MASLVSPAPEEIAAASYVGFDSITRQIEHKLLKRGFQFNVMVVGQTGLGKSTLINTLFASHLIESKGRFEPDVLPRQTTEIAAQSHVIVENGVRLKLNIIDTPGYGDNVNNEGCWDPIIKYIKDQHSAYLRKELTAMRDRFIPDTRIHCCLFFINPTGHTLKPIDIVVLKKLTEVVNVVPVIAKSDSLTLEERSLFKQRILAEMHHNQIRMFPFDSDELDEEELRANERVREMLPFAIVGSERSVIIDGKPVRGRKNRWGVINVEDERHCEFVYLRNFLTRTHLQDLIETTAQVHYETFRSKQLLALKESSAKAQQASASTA

B1: ELYS domain-containing protein (protein, UniProt J9VJ17 1-767)
chain: MAIADQFAIPITILRHFDLSSSPWSSQAEIFTKRRERSSNGKLFFDRLLEIAGIDGPSLYPPKSPADVRRLLHSIQSTELDRLKKDCYFYYLLLDYDGQSEAQKPNGHVEGMDVDDEDAILAVKTVEATKVAGKFARRRCMPRNWKIFIDGYWALDHGLWEIAVDKLSDPSISEVNFVSEIVQSLSTSVSPPQLACSLLHSFFLSTQPNFPNPSFESDVRLIATASATSIFTALGCIRQESSPEQRKRMREVVWSWMLGAPRTPCGAGNHVVQSKALKELTHAPLFPEEETHLIEFLSHPPRSIPSPALSQLHDLMTLRLIHQGHYNQVFQLDKKLAGNGAGTQGDKQKRREMVREFISILPETHRRVLLADVEGNLRRGEEEINGFSEDVDMAGSWLQVDGVEEPTPAPAFTLVSGSLSMTVPASVPAPVAIASTPIRSLPSSSNVVRPAHVASVGSPSQRPERTHSPFGGPPRFAQGATVSSSSPRQSLAFTGSPFSLPQKTAAAKTHGSSEKPRPKMVINDDQEAEETLQKEPVRGKGKGVVDGKGGLRRSTRRISMSVEPEELPVDENHPIEPIAEDTAWSPSHAVVQEPKSTRKGGRKTRDKTPPMPVSPSRRSTRARKSALDPLATDDEPLARRTRGASVHPEPSATPATRGRMTRSVSRALLEDSDHETVDVDMSVPPSKRNGTAVPGSISKKRRGSVATSEITDDGLATVVETPRVRRSNRKAAPSPTPSVQGSEAGKIRRKKENAAPTPRMATRSRRV
B2: Iron-sulfur clusters transporter ATM1, mitochondrial (protein, UniProt J9VWU3 56-732)
chain: QLPRHGLHRQSLAFFSTSHRRQTSPPPSPRTTSQSPTVPSKASTTPPTSLNTSKPIATESQDKTDWSIIVKLAGNIWPKNNPNVKFRVIGALTLLVAGKVLNVQVPFFFKTIVDSLNVPITESTTVWVLAGASIAGYGAARILTTLFGELRNAVFASVAQNAIRKVARETFEHLLNMDMKFHLERQTGGLTRAIDRGTKGISFILSSIVFHVIPTALEISMVCGILSWKFGWDFAAVTAITMLLYTWFTIKTTAWRTTFRKQANAADNKGATVAVDSLINYEAVKSFNNEKYEVAQYDTTLKAYEKASVKIATSLAALNSGQNFIFSSALTMMMLLGAQGIVKGTMTVGDLVLVNQLVFQLSLPLNFLGTVYRELRQSLIDMDVMFNLQSLNSAIKDTPTAKPLHLKGGEIEFRNVAFAYHPERPIFRDLSFKIPAGQKVAIVGPSGCGKSTVFRLLFRFYDSNSGQILIDGQDIKTVTLDSLRRSIGVVPQDTPLFHADILHNIRYGNLEATDEQVYEAARKAHVEGTIQRLPEKYATKVGERGLMISGGEKQRLAVARVLLKDPPVLFFDEATSALDVYTETELMRNINSILTGQGKTSVFIAHRLRTISDADLIIVLQDGYVAEQGTHEQLLAMPGGVYHRLWQAQLTESTQPTDEEIERQREELEVVDEKKKQ
B3: Pantetheine-phosphate adenylyl transferase (protein, UniProt J9VGG8 1-363)
chain: MTSKIDLQDHTILVLPFTPSLLRDPSPLYSPILDVLPRSSKKSFTVFFSTPAGSISSEQSAIQSISGVGSNQEQLYSLLRRTPQESFKALQSFLGHIYTALWTAQWKCGNVLLDVEVHFEGESGKLGDKLLRGKDDEEEYQLIKVEGVQETDLVASLDQIIPSPFTLLSLPYASLSSHQSEPYILLDEGRTPGFPVVALGGTFDRLHAAHKLLLHLGYFLAREKLIVGVMADDLLHTKAHADLVQPLNQRLDGVNAFLGRLGDGSIKLNVVEIHDALGPTRSDPNVQALVVSHETLSGGKYVNSTRKEGGLQELELFVVDVIAENGDMNLKKEMDESRLKKMKMGSTGVRNWIAERGTGEQDR
B4: Protein transport protein SFT2 (protein, UniProt J9VP98 1-206)
chain: MSDSAQRSFRSQLSSFRWANSVQDDSQPAPPPTTSNPFSRAWNSVSGYIPLRNEGSSQEEEAYFALSRWERFLGFLACCAGGIACFGIAFLFLPILAIKPRKFALAFTLGSCLFMLGFAILHGPWNHFKHILSPERLPFSLCYFGSLGLTLFFAIGIRSTIGTLLASIIQVVALLSYVVAYFPGGMTTLRLGGQMAMRGAGSLLPI
B5: Carnitine acetyltransferase (protein, UniProt J9VIM7 1-759)
chain: MIIPSSIHRIQSVHTPLRTLRATSLFTVSAPTHPASITARNVSRRMFAASTYRSNQPKTFENQSKLPRLPVPDLEASLEGYLKSLGPLLEEKYDKASLSNEVEKRQLYVKDFASTGGLGRVLQERLKDLDHVSPNNWLNDTLWLALAYHTWRAPLLVNSNWWLCFAEDPLSPPPPSLPSSTKESNATRAQTATIKVPNPSPLTDVPAGGQGGGKEWLVSGSIDPPVQYEKVVKKEWITPWQIRRAAWIARRFAEFRTKLEREEIKPDEIKGVKFCMNQYANMFNLSRIPLPNCDAFSTPSPLSTHLSLLVDDYYYAIDIFSPPSSSADGVPEPLPAGEIEKRFQAAVDDAKRRKERGERAVEVGVLGADDRDNWTKNREHLLLLSPSNRSTLTSLSTSLLALSLDPYTLPSVPPPSGDPLRLPAVDAQVRNCATGIDGGRNRWFDKAVSVLVETNGRAGIMGEHSPVDALIPSIVVEYVLDKPVDGSQFMSSAPVPVATGKSGEGWEKLDWAVDEAILQEIEQVKQRNQKLIDDSDASQLWWGEYASEWIKKIAKQAPDAYIQQALQLAWFLDQGYPTATYETASTRTMLHGRTDVIRSLTSESRAFVKAMVNPESTAEERYRLLSSACQAHNALTKRSSSGHGYDRHLMGLKVQLRAGETHPLFEDEVYAKSQEWKLSTSGLSAGGKFTATGFGAAWPDGYGINYMAGPHLIKFGIESKFSCEKTSTQRFKHNIVQVLRDMRAVCEAVGGVDASRAKL
B6: Mannose-6-phosphate isomerase (protein, UniProt J9VQA8 1-177)
chain: MSLVNVTRVVPKSILGASFTSATRRLTTTVPRFGRMPPPAHKMAHFPRITSSLPSEHSEFRTVMWTGESSQLVLMTIPVGGEIGEEIHHVDQHLVFTSGTAKAIVAGEEKEIKAGDLVIVPQGTKHNFVNTGPTPLCLFTVYAPAEHAETTVNRTKEEGDKLEEDGKDEPPEWAVRK
B7: CAP-Gly domain-containing protein (protein, UniProt J9W340 1-1057)
chain: MSRLPQLSTPGRPSPTTGIPTPTARRPRSSLGPGQSGTAVSDDLMDRAFQEALRNRPPSSLRSNDSPNELSESTTSTSHLAAPSATYGLAAPRTPGVRPRTPSTLGLGAPVTPSATSRSVSRAGLGVRSSLSTSTTAPFTPRRTSLASSTMSSTPFARRPESRASEREPTSAKWVPTVGERVRISSMGYEGVLRFYGTTEFKEGVWAGVELEGGFKGKGKNDGTVEGVQYFSCPPKCGIFVTAVKLSPPTTGTSRPASVASSHRSTASYSMSGRATPSISGRATPSISGRATPSRPPSATPGRVTRAVSTAHRTRPSISGADDEATPARTALGNSTNANAGIDSRITVGSRASRYIGMTAKQLDNARAGTTTPASKLAASTSTFNGQTPRVSRVSMGMGGTPARPRQSMGGLVTPRVRPRASGIGDMPPPPSPGNINRVLTARQMETLEEEIRELKRRNGELEEDLKRMPELRDEDVTEMETLRQEMERSKQELEFLKAQLQTSDTNATDAVKILEELQEEHTAEQAELEAKLREIGDLRKELKLANERAEEELAAGAEARKDEVQKMLERAQAAEAEVNSMQVLVDDLTDAGRQMISLNETKQFELEERIRELEDKNRSLDEKLQKAREEQEKALLPPSPSTRQREAATAAEIDNETLNAQVKHLQNKLNLLEEELEEARAQAETDAETWKGKMNRVKDGEKAAREEIVALKSEIKELKEQANGARGKIGELEGALKENQVALESARAEIEGLRTEAAEAASLRTTLQAANTNEKALSAAQEEIKELKTKLTTAINAEAKVVSDTKDRINDLEAKIASLEAEITTLKQTAESSIENNLPTSRPKLSNSSTSSENAEKKLIGLQHIVQELSTENADLKEQCESLKEEVSLMKEEVKLLEEASADIPGAQGNQKELLAAKATIKELNREVAELEALVESKIYREDELETRAAELEREIVLYKSSSKRSNGEPPHSAASTTFSHSSDGHSSSTANGGSQGTGEGTERCELCEGPHDLDACPVFAGNLSTEGTKKGGRWCADCESNEHDTSECPMAEDVF

What follows are binders tested against T1, Cdc10-mCherry (C. neoformans) (assay: affinity purification with mass spectrometry; mCherry-tagged septin captured from C. neoformans lysate on RFP-Trap agarose, 4 h at 4°C, washed with TBS with 2 M urea pH 7.5; GeLC-MS/MS; untagged H99 as negative control; hits logFC >2 and adjusted p <0.001 (text-named hits <0.05); exponential cultures at ~25°C or shifted to 37°C for 2 h; N = 5).

Binder	binding
B1	binds
B2	binds
B3	binds
B4	binds
B5	binds
B6	binds
B7	binds
